Measured values published in patent US9977024B2, “Targeted covalent probes and inhibitors of proteins containing redox-sensitive cysteines” (THE SCRIPPS RESEARCH INSTITUTE, priority 2012, dated 2018).

Experiment: Microsome stability, human liver microsomes

In the case of `O=C1CC(=O)C(CC(=O)Nc2ccc3ncnc(Nc4cccc(Br)c4)c3c2)C1` (stereo not shown), the “Microsome Stability Human t1/2” value is reported as > 100 min and 111 min.

Not every entry of the source has a single result; some have several. The list is limited to them. The source may hold further records. The values listed for one entry differ for a reason that is not stated; dose, time, organism, isomer or construct need not be as stated for each record.
